No constants are given. Whether binding was seen depends on the method and setting. In cells and extracts the contact can be indirect. A yes stands for co-enrichment or nearness to the bait. Other partners may have been found.
These substances were tested against FcεR1γ-FLAG (mouse) (UniProt P20491) (assay: affinity purification with mass spectrometry; anti-FLAG antibodies and Protein A/G magnetic beads on lysate of GFP+ RAW 264.7 cells lentivirally expressing FcεR1γ-FLAG (empty virus as control); lysis 50 mM Tris-HCl pH 7.4, 150 mM NaCl, 1% Triton X-100, 5 mM EDTA; wash with 500 mM NaCl, 0.1% Triton X-100; 4 °C; Orbitrap Exploris 480, MaxQuant LFQ).

Protein sequences, listed by entry. Tags and fused reporters are not part of them. Residues count along the entry.
UniProt P20491, residues 19-86: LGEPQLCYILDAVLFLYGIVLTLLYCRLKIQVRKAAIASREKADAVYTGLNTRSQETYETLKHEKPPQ
UniProt P52332: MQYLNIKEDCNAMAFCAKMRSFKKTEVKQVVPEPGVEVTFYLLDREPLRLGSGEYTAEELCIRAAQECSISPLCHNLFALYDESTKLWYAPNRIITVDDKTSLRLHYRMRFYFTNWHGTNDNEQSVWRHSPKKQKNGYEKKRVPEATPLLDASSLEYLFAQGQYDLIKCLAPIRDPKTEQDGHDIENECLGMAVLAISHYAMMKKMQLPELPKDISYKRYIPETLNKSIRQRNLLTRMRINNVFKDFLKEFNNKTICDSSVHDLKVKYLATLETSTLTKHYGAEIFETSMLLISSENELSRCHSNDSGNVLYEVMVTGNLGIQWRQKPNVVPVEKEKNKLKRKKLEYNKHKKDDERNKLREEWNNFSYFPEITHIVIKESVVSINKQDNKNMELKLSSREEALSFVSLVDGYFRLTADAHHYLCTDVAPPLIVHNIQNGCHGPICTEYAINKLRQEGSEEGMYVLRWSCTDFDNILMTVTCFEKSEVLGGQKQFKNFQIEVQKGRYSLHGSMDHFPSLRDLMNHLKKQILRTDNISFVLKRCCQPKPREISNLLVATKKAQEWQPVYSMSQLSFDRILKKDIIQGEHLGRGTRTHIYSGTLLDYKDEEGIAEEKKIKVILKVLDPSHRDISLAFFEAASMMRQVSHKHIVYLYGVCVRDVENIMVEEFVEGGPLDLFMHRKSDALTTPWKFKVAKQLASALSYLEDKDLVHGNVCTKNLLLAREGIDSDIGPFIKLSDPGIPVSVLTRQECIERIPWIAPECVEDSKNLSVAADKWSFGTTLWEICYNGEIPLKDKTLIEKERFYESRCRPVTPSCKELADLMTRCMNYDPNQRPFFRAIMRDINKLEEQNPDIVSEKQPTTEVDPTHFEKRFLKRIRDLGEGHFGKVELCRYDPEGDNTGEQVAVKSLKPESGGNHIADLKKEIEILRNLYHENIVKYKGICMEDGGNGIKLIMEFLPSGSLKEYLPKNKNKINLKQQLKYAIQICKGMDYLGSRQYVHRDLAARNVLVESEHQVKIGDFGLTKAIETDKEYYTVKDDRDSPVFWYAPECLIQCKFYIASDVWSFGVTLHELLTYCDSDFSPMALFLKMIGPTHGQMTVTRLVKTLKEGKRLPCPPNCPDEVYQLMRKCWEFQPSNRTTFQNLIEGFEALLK
UniProt Q7TNP2: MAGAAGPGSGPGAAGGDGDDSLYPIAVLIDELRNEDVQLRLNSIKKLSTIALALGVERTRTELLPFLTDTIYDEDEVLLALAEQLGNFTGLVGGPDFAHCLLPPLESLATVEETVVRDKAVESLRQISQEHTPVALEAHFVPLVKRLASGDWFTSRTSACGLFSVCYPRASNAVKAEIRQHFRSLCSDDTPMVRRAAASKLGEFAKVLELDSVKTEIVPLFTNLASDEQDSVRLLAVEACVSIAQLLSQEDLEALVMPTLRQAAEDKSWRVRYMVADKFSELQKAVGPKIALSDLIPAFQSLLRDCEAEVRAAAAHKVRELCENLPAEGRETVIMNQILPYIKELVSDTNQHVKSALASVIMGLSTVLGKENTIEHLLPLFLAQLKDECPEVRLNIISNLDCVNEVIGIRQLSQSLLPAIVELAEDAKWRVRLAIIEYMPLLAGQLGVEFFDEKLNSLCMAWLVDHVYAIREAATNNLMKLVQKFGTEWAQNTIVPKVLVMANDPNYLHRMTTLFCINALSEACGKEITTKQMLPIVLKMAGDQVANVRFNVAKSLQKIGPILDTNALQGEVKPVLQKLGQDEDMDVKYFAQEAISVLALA
UniProt Q6PD03: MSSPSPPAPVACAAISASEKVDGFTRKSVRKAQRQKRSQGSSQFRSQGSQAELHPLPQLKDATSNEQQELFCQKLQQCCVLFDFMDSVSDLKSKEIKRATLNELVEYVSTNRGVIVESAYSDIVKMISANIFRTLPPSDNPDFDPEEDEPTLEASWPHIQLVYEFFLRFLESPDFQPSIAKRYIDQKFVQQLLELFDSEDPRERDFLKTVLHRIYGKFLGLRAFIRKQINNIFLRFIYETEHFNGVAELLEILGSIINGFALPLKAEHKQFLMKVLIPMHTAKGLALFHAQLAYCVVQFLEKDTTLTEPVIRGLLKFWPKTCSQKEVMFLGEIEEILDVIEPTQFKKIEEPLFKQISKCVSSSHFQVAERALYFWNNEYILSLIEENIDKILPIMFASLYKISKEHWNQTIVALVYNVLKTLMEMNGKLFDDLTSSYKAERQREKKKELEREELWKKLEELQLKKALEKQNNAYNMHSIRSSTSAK
UniProt Q6DFZ1: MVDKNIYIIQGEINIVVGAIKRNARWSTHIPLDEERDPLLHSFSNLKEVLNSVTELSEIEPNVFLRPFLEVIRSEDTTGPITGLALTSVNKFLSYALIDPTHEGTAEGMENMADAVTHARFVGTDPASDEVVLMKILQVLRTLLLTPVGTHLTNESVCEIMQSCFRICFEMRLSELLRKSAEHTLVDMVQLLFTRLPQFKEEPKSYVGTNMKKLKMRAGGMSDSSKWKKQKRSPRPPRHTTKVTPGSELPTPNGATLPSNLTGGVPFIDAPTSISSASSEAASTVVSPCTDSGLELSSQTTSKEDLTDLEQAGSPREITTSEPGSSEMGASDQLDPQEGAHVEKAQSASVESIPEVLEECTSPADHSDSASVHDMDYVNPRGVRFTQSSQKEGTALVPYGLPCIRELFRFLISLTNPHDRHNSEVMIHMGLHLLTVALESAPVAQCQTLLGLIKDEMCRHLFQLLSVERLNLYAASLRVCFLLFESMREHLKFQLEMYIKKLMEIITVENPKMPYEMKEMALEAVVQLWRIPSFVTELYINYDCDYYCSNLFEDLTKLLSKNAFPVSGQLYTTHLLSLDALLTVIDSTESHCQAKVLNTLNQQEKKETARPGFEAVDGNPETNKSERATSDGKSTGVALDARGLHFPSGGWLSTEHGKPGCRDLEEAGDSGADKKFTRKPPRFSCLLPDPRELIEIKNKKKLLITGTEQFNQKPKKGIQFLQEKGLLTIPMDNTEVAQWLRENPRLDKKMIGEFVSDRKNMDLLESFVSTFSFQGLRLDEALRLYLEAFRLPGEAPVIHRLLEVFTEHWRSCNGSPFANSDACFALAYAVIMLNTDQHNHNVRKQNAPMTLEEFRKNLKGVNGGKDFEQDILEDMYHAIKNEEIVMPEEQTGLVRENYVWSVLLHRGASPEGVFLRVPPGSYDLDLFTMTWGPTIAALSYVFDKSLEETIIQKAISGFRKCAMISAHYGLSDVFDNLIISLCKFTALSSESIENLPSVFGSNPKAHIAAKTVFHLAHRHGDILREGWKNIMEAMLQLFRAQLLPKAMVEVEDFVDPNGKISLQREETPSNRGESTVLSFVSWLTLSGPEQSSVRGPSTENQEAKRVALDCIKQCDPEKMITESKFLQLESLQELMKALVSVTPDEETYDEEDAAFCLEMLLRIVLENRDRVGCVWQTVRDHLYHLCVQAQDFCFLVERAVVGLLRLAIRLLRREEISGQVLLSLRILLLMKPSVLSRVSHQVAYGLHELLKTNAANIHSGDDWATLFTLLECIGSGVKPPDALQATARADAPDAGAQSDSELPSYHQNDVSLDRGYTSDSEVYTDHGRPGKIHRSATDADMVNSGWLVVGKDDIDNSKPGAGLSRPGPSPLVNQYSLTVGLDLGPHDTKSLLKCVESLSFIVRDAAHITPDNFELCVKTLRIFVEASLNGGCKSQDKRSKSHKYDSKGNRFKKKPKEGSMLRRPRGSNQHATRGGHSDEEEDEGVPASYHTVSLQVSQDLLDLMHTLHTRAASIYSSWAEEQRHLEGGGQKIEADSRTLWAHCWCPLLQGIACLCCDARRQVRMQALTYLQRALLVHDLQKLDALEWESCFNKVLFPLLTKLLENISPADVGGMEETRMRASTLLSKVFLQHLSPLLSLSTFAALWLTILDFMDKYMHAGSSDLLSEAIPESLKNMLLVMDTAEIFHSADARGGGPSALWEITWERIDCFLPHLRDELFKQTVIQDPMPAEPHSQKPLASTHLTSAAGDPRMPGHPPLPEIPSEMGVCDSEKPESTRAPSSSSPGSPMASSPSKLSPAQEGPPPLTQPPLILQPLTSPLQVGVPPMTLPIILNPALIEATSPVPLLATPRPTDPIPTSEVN
UniProt Q3UGY8: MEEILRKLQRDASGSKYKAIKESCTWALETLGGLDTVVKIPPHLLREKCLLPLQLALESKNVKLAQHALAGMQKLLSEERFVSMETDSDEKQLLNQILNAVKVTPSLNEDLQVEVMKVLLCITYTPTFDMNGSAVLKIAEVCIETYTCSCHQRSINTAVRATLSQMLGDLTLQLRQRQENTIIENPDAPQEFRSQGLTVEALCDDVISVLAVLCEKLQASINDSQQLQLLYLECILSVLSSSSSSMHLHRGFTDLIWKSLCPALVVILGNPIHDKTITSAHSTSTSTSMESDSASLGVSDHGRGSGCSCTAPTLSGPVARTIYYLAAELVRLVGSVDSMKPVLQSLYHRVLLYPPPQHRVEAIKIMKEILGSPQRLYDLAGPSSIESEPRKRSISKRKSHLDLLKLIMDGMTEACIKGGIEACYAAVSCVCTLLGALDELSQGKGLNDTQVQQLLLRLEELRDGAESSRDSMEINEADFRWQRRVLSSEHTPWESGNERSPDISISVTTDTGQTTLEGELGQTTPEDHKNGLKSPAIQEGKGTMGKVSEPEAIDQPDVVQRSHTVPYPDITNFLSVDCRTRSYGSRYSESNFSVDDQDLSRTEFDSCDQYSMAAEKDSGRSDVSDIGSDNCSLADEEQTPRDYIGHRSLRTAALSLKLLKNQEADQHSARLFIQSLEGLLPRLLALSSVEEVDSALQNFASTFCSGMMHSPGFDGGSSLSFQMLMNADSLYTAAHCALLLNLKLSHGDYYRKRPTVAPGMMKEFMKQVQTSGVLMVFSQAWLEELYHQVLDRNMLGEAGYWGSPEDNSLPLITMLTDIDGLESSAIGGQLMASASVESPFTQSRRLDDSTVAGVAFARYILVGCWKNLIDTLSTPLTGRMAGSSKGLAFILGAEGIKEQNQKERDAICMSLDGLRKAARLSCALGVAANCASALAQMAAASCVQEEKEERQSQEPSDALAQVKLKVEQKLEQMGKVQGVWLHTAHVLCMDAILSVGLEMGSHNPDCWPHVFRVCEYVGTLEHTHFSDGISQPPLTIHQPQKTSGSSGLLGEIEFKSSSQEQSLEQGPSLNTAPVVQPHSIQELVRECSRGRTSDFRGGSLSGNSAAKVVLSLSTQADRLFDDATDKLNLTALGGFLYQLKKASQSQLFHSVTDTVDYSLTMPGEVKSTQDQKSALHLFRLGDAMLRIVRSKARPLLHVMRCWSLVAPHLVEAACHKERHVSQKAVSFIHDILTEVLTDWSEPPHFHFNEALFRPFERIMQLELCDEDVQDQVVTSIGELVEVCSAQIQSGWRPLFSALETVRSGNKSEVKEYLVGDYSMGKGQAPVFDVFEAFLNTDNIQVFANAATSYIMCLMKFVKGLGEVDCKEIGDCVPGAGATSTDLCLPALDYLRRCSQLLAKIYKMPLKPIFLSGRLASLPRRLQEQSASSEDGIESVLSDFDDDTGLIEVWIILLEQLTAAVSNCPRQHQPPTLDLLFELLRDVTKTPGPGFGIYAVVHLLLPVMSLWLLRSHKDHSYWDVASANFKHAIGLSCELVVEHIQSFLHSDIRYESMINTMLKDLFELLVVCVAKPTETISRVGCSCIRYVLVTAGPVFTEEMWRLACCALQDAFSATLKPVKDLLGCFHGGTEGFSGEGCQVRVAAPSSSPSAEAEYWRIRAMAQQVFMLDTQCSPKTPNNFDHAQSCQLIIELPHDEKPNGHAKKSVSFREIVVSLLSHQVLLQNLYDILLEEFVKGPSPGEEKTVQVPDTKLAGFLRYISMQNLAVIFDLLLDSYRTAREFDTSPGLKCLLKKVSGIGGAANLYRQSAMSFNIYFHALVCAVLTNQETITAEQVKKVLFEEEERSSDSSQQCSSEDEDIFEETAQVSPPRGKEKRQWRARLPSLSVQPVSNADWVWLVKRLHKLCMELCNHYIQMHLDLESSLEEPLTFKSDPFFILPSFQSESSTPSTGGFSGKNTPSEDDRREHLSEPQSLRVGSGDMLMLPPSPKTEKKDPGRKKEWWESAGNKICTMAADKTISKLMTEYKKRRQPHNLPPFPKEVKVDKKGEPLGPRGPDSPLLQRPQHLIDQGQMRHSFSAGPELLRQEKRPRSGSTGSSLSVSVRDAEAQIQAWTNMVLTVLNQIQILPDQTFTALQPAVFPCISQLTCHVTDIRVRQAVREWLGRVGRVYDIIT

binding, binds:
JAK1 (from UniProt P52332 1-1153)
KPNB1 (from UniProt P70168 1-876)
PPP2R1B (from UniProt Q7TNP2 1-601)
PPP2R5A (from UniProt Q6PD03 1-486)
ELMO1 (from UniProt Q8BPU7 1-727)
IPO9 (from UniProt Q91YE6 1-1041)
XPO1 (from UniProt Q6P5F9 1-1071)
GBF1 (from UniProt Q6DFZ1 1-1861)
IPO7 (from UniProt Q9EPL8 1-1038)
DOCK2 (from UniProt Q8C3J5 1-1828)
CYFIP1 (from UniProt Q7TMB8 1-1253)
ARFGEF1 (from UniProt G3X9K3 1-1846)
ARFGEF3 (from UniProt Q3UGY8 1-2170)
